Assay results as given in article PMC7105381.
These are yes or no findings as the source states them, for the method shown. Binding can be weak; no strength is given.

Chains of the proteins cited; added tags and fusions are not shown. Lines headed by an entry give the natural chain unless they say otherwise; changes in a name come on top.
UniProt F2DCT9: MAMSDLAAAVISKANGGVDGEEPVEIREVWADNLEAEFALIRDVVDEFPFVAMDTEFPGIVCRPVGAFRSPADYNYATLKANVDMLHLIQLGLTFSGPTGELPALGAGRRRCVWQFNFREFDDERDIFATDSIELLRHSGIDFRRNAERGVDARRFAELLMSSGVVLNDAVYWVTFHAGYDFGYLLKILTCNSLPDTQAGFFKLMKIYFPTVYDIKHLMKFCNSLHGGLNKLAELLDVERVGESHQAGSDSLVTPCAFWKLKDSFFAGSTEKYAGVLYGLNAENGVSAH
UniProt F2EF82: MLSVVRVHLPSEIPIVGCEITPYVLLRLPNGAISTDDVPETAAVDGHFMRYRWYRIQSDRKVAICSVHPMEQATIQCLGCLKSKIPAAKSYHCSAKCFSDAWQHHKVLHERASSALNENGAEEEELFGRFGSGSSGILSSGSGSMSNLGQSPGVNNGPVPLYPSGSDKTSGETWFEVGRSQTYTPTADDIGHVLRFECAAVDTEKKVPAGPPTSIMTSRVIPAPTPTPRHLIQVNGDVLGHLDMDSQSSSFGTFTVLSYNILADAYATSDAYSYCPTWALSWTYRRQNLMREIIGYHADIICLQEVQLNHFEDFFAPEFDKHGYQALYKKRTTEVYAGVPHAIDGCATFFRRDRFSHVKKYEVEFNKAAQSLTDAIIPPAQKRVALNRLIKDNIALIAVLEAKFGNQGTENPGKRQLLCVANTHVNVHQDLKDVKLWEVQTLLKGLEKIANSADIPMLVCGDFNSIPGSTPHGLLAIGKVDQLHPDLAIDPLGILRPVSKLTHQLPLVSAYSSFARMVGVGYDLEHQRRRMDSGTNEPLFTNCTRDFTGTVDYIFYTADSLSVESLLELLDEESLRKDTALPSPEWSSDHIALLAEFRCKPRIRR

Molecular target: MBP-HvCAF1 (barley (Hordeum vulgare)) (UniProt F2DCT9)
Assay: pull-down; MBP pull-down: CCR4-His or P-His incubated with MBP-HvCAF1 or MBP and anti-MBP beads; blots with anti-His or anti-MBP; both purified

## HvCCR4 fused with a 6 x His tag (HvCCR4-His) (from UniProt F2EF82) (enzyme)
  binding: binds
